Data as given in paper PMC13042082.

Protein sequences, listed by entry. Tags and fused reporters are not part of them. Lines headed by an entry give the natural chain unless they say otherwise; changes in a name come on top. Residues count along the entry.
UniProt Q15109, residues 23-404: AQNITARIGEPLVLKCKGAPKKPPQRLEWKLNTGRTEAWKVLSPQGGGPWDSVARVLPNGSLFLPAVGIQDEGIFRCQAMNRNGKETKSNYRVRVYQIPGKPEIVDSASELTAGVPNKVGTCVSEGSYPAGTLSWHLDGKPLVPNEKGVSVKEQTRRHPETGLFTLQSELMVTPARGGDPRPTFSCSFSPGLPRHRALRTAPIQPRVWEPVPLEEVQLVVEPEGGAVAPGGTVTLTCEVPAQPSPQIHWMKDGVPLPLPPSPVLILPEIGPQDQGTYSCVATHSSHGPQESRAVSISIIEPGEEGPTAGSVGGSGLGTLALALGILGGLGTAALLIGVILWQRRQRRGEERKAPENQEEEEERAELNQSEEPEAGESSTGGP
UniProt P08311: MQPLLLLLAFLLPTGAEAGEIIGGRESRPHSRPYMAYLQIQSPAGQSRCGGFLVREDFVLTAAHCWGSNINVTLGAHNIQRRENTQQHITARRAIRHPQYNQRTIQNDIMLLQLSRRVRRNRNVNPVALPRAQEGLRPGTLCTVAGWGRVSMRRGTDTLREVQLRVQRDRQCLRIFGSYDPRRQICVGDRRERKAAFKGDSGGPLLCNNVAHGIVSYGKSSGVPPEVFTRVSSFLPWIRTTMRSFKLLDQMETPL

Target: His tag fused RAGE (receptor for advanced glycation end products) (UniProt Q15109)
Assay: pull-down; His-tagged RAGE overexpressed in 293T cells; lysate (50 mM NaH2PO4, 300 mM NaCl, 10 mM imidazole, pH 8.0) incubated with 2 ug CTSG at 4 C for 2 h; captured on Ni-NTA agarose beads, washed 3 times, Western blot with anti-His tag and anti-CTSG antibodies; the paper calls it co-immunoprecipitation; only the binder purified

Cathepsin G (from UniProt P08311) (enzyme)
binding: binds

No constants are given. Whether binding was seen depends on the method and setting. Binding seen in cells or lysates may run through a third protein. Binding can be weak; no strength is given.
